# Paper PMC7819943, “Rice protein-binding microarrays: a tool to detect cis-acting elements near promoter regions in rice”
# Chains of the proteins cited; added tags and fusions are not shown.
# UniProt Q0JBA9, entry or part of it: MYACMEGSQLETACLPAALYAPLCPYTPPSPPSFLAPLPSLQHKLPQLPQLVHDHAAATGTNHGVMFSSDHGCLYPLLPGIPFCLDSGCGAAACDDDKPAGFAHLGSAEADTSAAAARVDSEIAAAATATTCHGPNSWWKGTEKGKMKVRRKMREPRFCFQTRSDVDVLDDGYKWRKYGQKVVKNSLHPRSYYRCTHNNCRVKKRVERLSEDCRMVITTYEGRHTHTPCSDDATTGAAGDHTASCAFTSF
# This is one part of the list.
# Molecular target: OsWRKY34 (Oryza sativa, UniProt Q0JBA9 1-250)
# Assay: protein-binding microarray (RPBM); PBS, 2% BSA, 51.3 ng/ul salmon testes DNA, 50 uM zinc acetate, 200 nM TF, 25 C, 1 h; high values mean tight binding
# Settings: protein: recombinant; tags: N-terminal polyhistidine and DsRed monomer fusion (pET32a); label: CyDye5-dUTP incorporated in the synthesized complementary strand; 3' TTTTT single-stranded linker to array surface; dsDNA, one strand shown
# Method in brief: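 Per-feature fluorescence intensity (arbitrary units), read on an Axon 4000B scanner, is the binding signal. Transcription factors carrying an N-terminal polyhistidine tag and DsRed fusion were expressed in E. coli BL21-CodonPlus and purified on Ni–NTA. A custom Agilent array, made double-stranded by primer extension with Cy5-dUTP and blocked with 2% BSA, was incubated with 200 nM protein in PBS, 2% BSA, salmon testes DNA and 50 µM zinc acetate at 25 °C for 1 h and then washed.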
row,Sequence,binding signal
1,ATCTTGTTTGGAGTTAATTTGGAGTACTATATTTTTTTTTCGGAGTCACCTAGTGCAG,8230 fluorescence intensity (a.u.)
2,ATCTCCAAAATCAGTTTAACATCGCCTAATCCACGTCGGTCGGAGTCACCTAGTGCAG,8820 fluorescence intensity (a.u.)
3,TTTTTGACTTTACCAAAAATGATCAGTTGCTTTTTTTTTTCGGAGTCACCTAGTGCAG,9200 fluorescence intensity (a.u.)
4,GTCGCTTCACCACAAGCACCATCGTTATCTATTGCCGTATCGGAGTCACCTAGTGCAG,11800 fluorescence intensity (a.u.)
5,TAGGGTTTTTTTCATCGAAGTTTATTTTTCAGTCTTTGACCGGAGTCACCTAGTGCAG,10100 fluorescence intensity (a.u.)
6,ATTAATCTAATCTCCTCGTCGATGTGATCTTACGGCCAATCGGAGTCACCTAGTGCAG,9180 fluorescence intensity (a.u.)
7,ATGATGGCTTGGCGGTATAGTTTCAGTAATCTGAAAATCACGGAGTCACCTAGTGCAG,8260 fluorescence intensity (a.u.)
8,GTTTTTTTGTCCTGTGGTTCTTGCAATTGCAGGCCTGATGCGGAGTCACCTAGTGCAG,8540 fluorescence intensity (a.u.)
9,TTTCTGTGTCCAACGTTTGACCGTCCGTCTTATTTGAATTCGGAGTCACCTAGTGCAG,9790 fluorescence intensity (a.u.)
10,TTTTTTTCACTCCATAATAATAGGTTGCATTTGTCTTTTTCGGAGTCACCTAGTGCAG,10700 fluorescence intensity (a.u.)
11,TGTGGCGTGCGTCGCATGGTGGAGGGAGGGACAGAGATGTCGGAGTCACCTAGTGCAG,8480 fluorescence intensity (a.u.)
12,GGCTGAACCAATCTATCCCCGTGCTCGCTGTGAGGCCATTCGGAGTCACCTAGTGCAG,8620 fluorescence intensity (a.u.)
13,ACGTCCAAATCACATTATATCAGTTCCTGTTTGTAACCGCCGGAGTCACCTAGTGCAG,8550 fluorescence intensity (a.u.)
14,TTGGAGGCGCCGCGGCCGATACAGGGCGGGGTGCGGTTAGCGGAGTCACCTAGTGCAG,9550 fluorescence intensity (a.u.)
15,TATATATATGGTCCTTCGTGTACATGTTTCCCTGATTTTCCGGAGTCACCTAGTGCAG,10700 fluorescence intensity (a.u.)
16,AATCCCAATTGCTTATTCTCCTTCGACAAGCCGGCCACCGCGGAGTCACCTAGTGCAG,8740 fluorescence intensity (a.u.)
17,GACGCGGCCGCCTCCCCTACCCCGCGCCACGCCAATCCATCGGAGTCACCTAGTGCAG,8610 fluorescence intensity (a.u.)
18,CGGCCTGTTCCCAACGCTGTTCAGTATGGCAGTCACCCTTCGGAGTCACCTAGTGCAG,10000 fluorescence intensity (a.u.)
19,TTCCACTCTCACCGGCCACCGCGCGCTCTCTCTCTCTCTCCGGAGTCACCTAGTGCAG,8140 fluorescence intensity (a.u.)
20,GGGTGCTGGGGCTTTGGCTGCCTTGACTTGGATTGCCTTCCGGAGTCACCTAGTGCAG,8640 fluorescence intensity (a.u.)
21,TGGTCCGTGGCAGCTACGGCGGCGAGGTGGGGAGGAGACACGGAGTCACCTAGTGCAG,9310 fluorescence intensity (a.u.)

row,Sequence,binding signal
1,GAATGTTGGTGGTTGGTTATGTGTGTACAAATCCAAATTACGGAGTCACCTAGTGCAG,8060 fluorescence intensity (a.u.)
2,TGGTCAGGCGGCATGTGATCGAGGCCGGTTTTGGTTTGACCGGAGTCACCTAGTGCAG,8950 fluorescence intensity (a.u.)
3,AACCATGCATCCACATGGACCTACCTAACCCAACCGGACGCGGAGTCACCTAGTGCAG,8520 fluorescence intensity (a.u.)
4,CTGATTTTCATTTGAGAACAAAGTTTCTACGCATATTACCCGGAGTCACCTAGTGCAG,8240 fluorescence intensity (a.u.)
5,GCCTATGATTTGGTTATACTTCAGTTCAGAGTGTCTCGATCGGAGTCACCTAGTGCAG,9880 fluorescence intensity (a.u.)
6,CAGCGAGATTAAGGGACAGTAACTCCCACTGCTAAGCAAGCGGAGTCACCTAGTGCAG,11400 fluorescence intensity (a.u.)
7,CTTTCCTACACACATAAACTTCCAACTTTTCCATCACATCCGGAGTCACCTAGTGCAG,11400 fluorescence intensity (a.u.)
8,CTTCTGGAGGCGCGCTGCTCTTCGCGGCATCTCAATTCCCCGGAGTCACCTAGTGCAG,8560 fluorescence intensity (a.u.)
9,TATACATTTGTATCAGTCGTCATACCCTGCATTCCTTAAACGGAGTCACCTAGTGCAG,8090 fluorescence intensity (a.u.)
10,GCTTGTCGTGCTCACACACCCAGCTAGCCTTTTTTCCTCCCGGAGTCACCTAGTGCAG,8390 fluorescence intensity (a.u.)
11,ACCTGCTATGTAACTTATATTATTTAACTGGTAATTGGTCCGGAGTCACCTAGTGCAG,8940 fluorescence intensity (a.u.)
12,TATGTGGTTCTTCGTCATCACACGTTCAGTTCTATCCAAACGGAGTCACCTAGTGCAG,9940 fluorescence intensity (a.u.)
13,GGCTGAGTTTTCTGTGTGTTGGCATCTTGCAACTGTCGAGCGGAGTCACCTAGTGCAG,10000 fluorescence intensity (a.u.)
14,GAGCTAGCTAGTGTCCTCCTGCATCGCCCCGTCCACCACCCGGAGTCACCTAGTGCAG,8360 fluorescence intensity (a.u.)
15,AACAATCCAGTAGCAACATGGTTAATCTCAATCATTTTTTCGGAGTCACCTAGTGCAG,8390 fluorescence intensity (a.u.)
16,ATTTCTTTCTTTACATCGTCTCTTTCTTGATTTCCCAATCCGGAGTCACCTAGTGCAG,10200 fluorescence intensity (a.u.)
17,GTTTTCACGGTAATTACTGGCTCTTTTTACTCAACAATCTCGGAGTCACCTAGTGCAG,9460 fluorescence intensity (a.u.)
18,TACTGTCTTGGCCTATCACAGAGCCGCTTCCATTTCCATCCGGAGTCACCTAGTGCAG,9530 fluorescence intensity (a.u.)
19,CTCCGCTGCCGCTATCCCCGCCTCGCGCCGCGCCACCATGCGGAGTCACCTAGTGCAG,8150 fluorescence intensity (a.u.)
20,GGAGGGCGGGCTGTTATATTCTTCACACCTTGCATGTAAGCGGAGTCACCTAGTGCAG,18700 fluorescence intensity (a.u.)
21,ATCCGCCGTGTTATTATCTCTTTTCCGGCCCCGAACTGTTCGGAGTCACCTAGTGCAG,9710 fluorescence intensity (a.u.)

row,Sequence,binding signal
1,ATGATGATGATTTTTTGCCTTGCTTTGCTGATGCTCCTCCCGGAGTCACCTAGTGCAG,8730 fluorescence intensity (a.u.)
2,ATTCCCGCATCCGCATCCCGCATCCCGCCTGGTTTGTGATCGGAGTCACCTAGTGCAG,12200 fluorescence intensity (a.u.)
3,ATGAATCTATTATTATGTTTTTGTGATGCTGTGATGTTCCCGGAGTCACCTAGTGCAG,10000 fluorescence intensity (a.u.)
4,GGGGTGGGCTGTTCGTGGGCCTCTCCCCACGTTGCGATGCCGGAGTCACCTAGTGCAG,9080 fluorescence intensity (a.u.)
5,GTTTATGTGGGCCCCACTATTCTTTTTTATTATTGTGTGTCGGAGTCACCTAGTGCAG,8660 fluorescence intensity (a.u.)
6,CTCCATGTTGGATGTGGCTCATCTCTCCGCCGCTCACTACCGGAGTCACCTAGTGCAG,9030 fluorescence intensity (a.u.)
7,ATTCCACTCTCTCTTCCCTTACTCAAATTGTTCTGGAAATCGGAGTCACCTAGTGCAG,8300 fluorescence intensity (a.u.)
8,GTCTTCCCCACATTGGCTCTCATCGCTCTGACGGTATCTTCGGAGTCACCTAGTGCAG,8320 fluorescence intensity (a.u.)
9,TAAGTTCAGGTGGGTTTCTTTCTTTTGTGCAAATTTAAGTCGGAGTCACCTAGTGCAG,9010 fluorescence intensity (a.u.)
10,ATTTTGTTTAGGCTTAGATTTGCTGTCTTTGGCTTTAAGTCGGAGTCACCTAGTGCAG,10300 fluorescence intensity (a.u.)
11,CCCCAAAATCACCGTCTACCCCGACACTTTTCACGCTCCTCGGAGTCACCTAGTGCAG,8650 fluorescence intensity (a.u.)
12,TCCGTGCAGACTTTTCGCTGGGCCGTTTGTGTTTTTCTTTCGGAGTCACCTAGTGCAG,14700 fluorescence intensity (a.u.)
13,GCCTACCCTAACACAGCCAGCCCGGGACCACCACGCCGCGCGGAGTCACCTAGTGCAG,10000 fluorescence intensity (a.u.)
14,TGACTTTCTCGGATTTAATGCATGACTCTTCATTCTTCCACGGAGTCACCTAGTGCAG,9410 fluorescence intensity (a.u.)
15,CTATGTGTGTGTGTGTATAAATATGCGACGCGAGCTCGAGCGGAGTCACCTAGTGCAG,10600 fluorescence intensity (a.u.)
16,AGGGCACATCCCCAAGGCCATATCTCACTTGACAAAGCTCCGGAGTCACCTAGTGCAG,8070 fluorescence intensity (a.u.)
17,CCATTTTTCTGCTCTCATTATATCATGTGGTTTGCTTCTGCGGAGTCACCTAGTGCAG,8030 fluorescence intensity (a.u.)
18,CCTTCCGATCCACCACCCGCCAGTCTCCTCGCCAATTCTGCGGAGTCACCTAGTGCAG,8690 fluorescence intensity (a.u.)
19,GCCGGCCGCCGCAATGCCGCGAGCCCCACCTCCGCGGCCGCGGAGTCACCTAGTGCAG,8480 fluorescence intensity (a.u.)
20,TTGATTGTGACTTGCCATATTTTTTCAATAGCATATCCCACGGAGTCACCTAGTGCAG,8520 fluorescence intensity (a.u.)
21,TGTAGAGGTCTCATAAACCACCATGACCTTGCTGCTTCACCGGAGTCACCTAGTGCAG,9620 fluorescence intensity (a.u.)

row,Sequence,binding signal
1,TGGTGGTGGTGGTGGGCCTTCCCGTCGTCGTCTTCGACTTCGGAGTCACCTAGTGCAG,12400 fluorescence intensity (a.u.)
2,AAGTTTATATACCCGTTTCAAATTTGAATTTGAATTATATCGGAGTCACCTAGTGCAG,8050 fluorescence intensity (a.u.)
3,CCCAACTATTTCCACAAATTCTTTCGATAAGCCATTATATCGGAGTCACCTAGTGCAG,8580 fluorescence intensity (a.u.)
4,GTTCTATGTCCTTCCTGTTCTTTGTCTTTGGTCCTCTATGCGGAGTCACCTAGTGCAG,9420 fluorescence intensity (a.u.)
5,TTCTTGTGCTGTTTTTGTTCTTTTTGTTTCATAATACCAGCGGAGTCACCTAGTGCAG,8400 fluorescence intensity (a.u.)
6,GCCGATTGAAGAGCAAATACAGTTGACTTTTAAAATCGAACGGAGTCACCTAGTGCAG,8290 fluorescence intensity (a.u.)
7,ATCGTCGTTGTGTTGTTATTGGAGCTAAAGCTCAGCCGAACGGAGTCACCTAGTGCAG,9320 fluorescence intensity (a.u.)
8,GAGGTTCATTGTGGCGCACAATTTTGTGGTAATCTATACACGGAGTCACCTAGTGCAG,9790 fluorescence intensity (a.u.)
9,CAGTCTTTTTCTTTTATACACATGCTTAACAGCGTAATTACGGAGTCACCTAGTGCAG,8460 fluorescence intensity (a.u.)
10,TTTCTTTGACTCGGTGACTTTGTGAGAGATGTTTTATGCCCGGAGTCACCTAGTGCAG,9190 fluorescence intensity (a.u.)
11,ATTTGTTCCCATCCATCTCGGCCCTGTCGCCATTGTGCCACGGAGTCACCTAGTGCAG,9450 fluorescence intensity (a.u.)
12,TTTCTTAGACCCGCTATTCTAATCTACTTTCTCTATTTCACGGAGTCACCTAGTGCAG,9140 fluorescence intensity (a.u.)
13,TCTCTTGCCCTTGGCGTAGCTGCTTGCAAACGCCTTGAGACGGAGTCACCTAGTGCAG,8400 fluorescence intensity (a.u.)
14,ATCTTATCAGGCCTTTTTGTTGTTCTGCTGGTCTTGCTCGCGGAGTCACCTAGTGCAG,10600 fluorescence intensity (a.u.)
15,TTCCTCTGGCCCGCCGGCAAAGGGCGCCACCGTCTCGACTCGGAGTCACCTAGTGCAG,8970 fluorescence intensity (a.u.)
16,GATATAACCAACCAGTCTAACCACCACTACACACTCCACTCGGAGTCACCTAGTGCAG,8310 fluorescence intensity (a.u.)
17,CAGCTCATCATCCCATCACACCCTTCTTCGAACGGCACAACGGAGTCACCTAGTGCAG,9910 fluorescence intensity (a.u.)
18,CTATAGGTGGATTTTTAGGGACTCACCCGTAAAAACAGGTCGGAGTCACCTAGTGCAG,26800 fluorescence intensity (a.u.)
19,GGATTTGTGATGTATTTGATTTGTGTGTATATGTAACTTTCGGAGTCACCTAGTGCAG,8760 fluorescence intensity (a.u.)
20,GATATTGGTGTTGCGGTCATTTTGGACAATGCCTTTGTCGCGGAGTCACCTAGTGCAG,12800 fluorescence intensity (a.u.)
21,GGGGTGGCGGCGGCGGCTGCGCGCGGGCGGTGGCGCGGGGCGGAGTCACCTAGTGCAG,12000 fluorescence intensity (a.u.)

# An excerpt from the list above, for reference:
row,Sequence,binding signal
6,GCCGATTGAAGAGCAAATACAGTTGACTTTTAAAATCGAACGGAGTCACCTAGTGCAG,8290 fluorescence intensity (a.u.)
7,ATCGTCGTTGTGTTGTTATTGGAGCTAAAGCTCAGCCGAACGGAGTCACCTAGTGCAG,9320 fluorescence intensity (a.u.)
8,GAGGTTCATTGTGGCGCACAATTTTGTGGTAATCTATACACGGAGTCACCTAGTGCAG,9790 fluorescence intensity (a.u.)
9,CAGTCTTTTTCTTTTATACACATGCTTAACAGCGTAATTACGGAGTCACCTAGTGCAG,8460 fluorescence intensity (a.u.)
10,TTTCTTTGACTCGGTGACTTTGTGAGAGATGTTTTATGCCCGGAGTCACCTAGTGCAG,9190 fluorescence intensity (a.u.)
11,ATTTGTTCCCATCCATCTCGGCCCTGTCGCCATTGTGCCACGGAGTCACCTAGTGCAG,9450 fluorescence intensity (a.u.)
12,TTTCTTAGACCCGCTATTCTAATCTACTTTCTCTATTTCACGGAGTCACCTAGTGCAG,9140 fluorescence intensity (a.u.)
13,TCTCTTGCCCTTGGCGTAGCTGCTTGCAAACGCCTTGAGACGGAGTCACCTAGTGCAG,8400 fluorescence intensity (a.u.)
14,ATCTTATCAGGCCTTTTTGTTGTTCTGCTGGTCTTGCTCGCGGAGTCACCTAGTGCAG,10600 fluorescence intensity (a.u.)
15,TTCCTCTGGCCCGCCGGCAAAGGGCGCCACCGTCTCGACTCGGAGTCACCTAGTGCAG,8970 fluorescence intensity (a.u.)
16,GATATAACCAACCAGTCTAACCACCACTACACACTCCACTCGGAGTCACCTAGTGCAG,8310 fluorescence intensity (a.u.)
